## Primary screen of a compound library

The chains behind the UniProt entries cited, without tags or fusion partners. Residues count along the entry.
UniProt P9WPC5, whole entry: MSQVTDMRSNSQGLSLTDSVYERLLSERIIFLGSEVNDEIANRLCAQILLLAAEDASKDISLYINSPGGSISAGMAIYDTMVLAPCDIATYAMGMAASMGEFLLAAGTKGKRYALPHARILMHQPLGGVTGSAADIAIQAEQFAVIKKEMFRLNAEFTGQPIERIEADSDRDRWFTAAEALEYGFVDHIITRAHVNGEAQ
UniProt P9WPC3, whole entry partner: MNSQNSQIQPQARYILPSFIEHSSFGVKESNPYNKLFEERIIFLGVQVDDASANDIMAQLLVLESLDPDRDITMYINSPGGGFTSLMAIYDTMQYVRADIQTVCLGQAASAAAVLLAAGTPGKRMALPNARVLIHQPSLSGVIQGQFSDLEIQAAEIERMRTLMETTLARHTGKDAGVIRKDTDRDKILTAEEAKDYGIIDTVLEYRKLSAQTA
UniProt P9WNZ1, whole entry: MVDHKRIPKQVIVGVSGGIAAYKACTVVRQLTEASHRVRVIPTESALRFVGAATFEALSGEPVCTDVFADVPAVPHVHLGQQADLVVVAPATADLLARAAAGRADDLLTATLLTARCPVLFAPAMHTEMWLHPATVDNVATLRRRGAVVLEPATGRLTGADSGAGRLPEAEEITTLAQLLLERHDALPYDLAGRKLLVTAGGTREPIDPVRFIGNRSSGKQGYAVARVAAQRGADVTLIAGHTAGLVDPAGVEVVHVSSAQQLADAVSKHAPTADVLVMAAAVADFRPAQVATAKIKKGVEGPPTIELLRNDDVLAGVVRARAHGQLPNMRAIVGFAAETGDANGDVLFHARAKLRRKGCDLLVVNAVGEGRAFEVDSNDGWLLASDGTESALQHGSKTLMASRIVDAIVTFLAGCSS
UniProt A4I591, 1-473: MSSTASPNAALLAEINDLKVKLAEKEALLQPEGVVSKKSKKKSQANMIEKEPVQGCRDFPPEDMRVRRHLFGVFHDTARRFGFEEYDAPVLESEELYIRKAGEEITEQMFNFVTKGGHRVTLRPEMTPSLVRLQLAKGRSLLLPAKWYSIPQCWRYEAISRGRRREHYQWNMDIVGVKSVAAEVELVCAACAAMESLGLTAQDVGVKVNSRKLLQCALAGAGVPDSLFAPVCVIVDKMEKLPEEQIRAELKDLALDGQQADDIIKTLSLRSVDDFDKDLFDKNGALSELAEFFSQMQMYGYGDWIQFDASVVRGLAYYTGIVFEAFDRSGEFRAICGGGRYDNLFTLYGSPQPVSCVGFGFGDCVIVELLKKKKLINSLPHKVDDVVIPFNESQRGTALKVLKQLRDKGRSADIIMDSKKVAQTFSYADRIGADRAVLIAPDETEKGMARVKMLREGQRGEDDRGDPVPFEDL

ClpP1P2: 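Protease assay of ClpP1P2, read by the AMC dye that it sets free. Target: ClpP1P2, Mycobacterium tuberculosis (UniProt P9WPC5 and UniProt P9WPC3). Concentration: 50 µM. Direction is inferred from only a few compounds that gave an IC50; most scored high, so higher reads as stronger inhibition. Most other retested compounds had strongly negative values. Size under these conditions: about 69,000 compounds, about 10 of them at 50% or above in at least one test.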
CoaBC: 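Enzyme assay of CoaBC with a phosphate dye (Biomol Green) read at 650 nm. Target: Coenzyme A biosynthesis protein CoaBC, Mycobacterium tuberculosis (UniProt P9WNZ1). Tested at 30 µM. Higher reads as stronger inhibition, judged from the few compounds that gave an IC50. Most strong results did not repeat in a second test. About 67,000 compounds were tested under these conditions; 0.06% (about 40) showed 50% or more at least once.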
Leishmania in macrophages: 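Cell assay of Leishmania donovani living inside macrophages; the read-out is not stated. Concentration: 30 µM. The record gives no direction; compounds that gave an IC50 in retests scored well above the rest, so higher reads as stronger inhibition. Size under these conditions: about 69,000 compounds, about 1,000 of them at 50% or above in at least one test.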
LiHisRS: 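Histidine-tRNA ligase, Leishmania infantum (UniProt A4I591). Enzyme assay of histidyl-tRNA synthetase; the read-out is not stated. Tested at 30 µM. Higher reads as stronger inhibition (inferred: compounds with an IC50 in retests scored well above the rest). The assay is labelled LdHisRS but filed under L. infantum. Size under these conditions: about 69,000 compounds, about 410 of them at 50% or above in at least one test.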

The filed quantity is “Percent Effect” (%).
The record does not define 0% and 100%; most values in the screen are far below 50% and negative numbers occur (in some assays of this library far below -100).
This is an unselected part of the compounds tested.
Two or more numbers in one place are separate tests of the same structure; such repeats can differ widely.
A dash means the value is not listed here; it may have been measured.

compound,ClpP1P2,CoaBC,Leishmania in macrophages,LiHisRS
CCOC(C)C(=O)NCc1ccc(N(C)C)cc1 (configuration not stated),-39.8,4.439,32.36,15.04
O=S1(=O)CCC(S(=O)(=O)c2cccc(S(=O)(=O)N3CCOCC3)c2)C1 (configuration not stated),-13.59,2.309,-15.71,15.22
CNC(=O)c1sc2ccccc2c1C1CCN(c2cc(C)nc(C)n2)C1 (configuration not stated),4.342,-24.66,-2.033,11.35
Cc1cc(C(=O)O)cc(S(=O)(=O)Nc2ccc3c(c2)OCCO3)c1C,-4.382,0.2632,14.5,19.44
CC(C)N(C)Cc1cncc2c1CCN(C(=O)c1ccccc1F)C2,-13.61,5.708,-,7.018
O=C(CCc1nc2cccnc2[nH]1)Nc1cccnc1,6.352,-4.172,15.25,21.36
Cc1noc(C(C)C)c1C(=O)NCCCN1CCNCC1.Cl,-,-,14.95,-
CNC(=O)[C@@H]1C[C@H](N)CN1S(=O)(=O)c1cc(Cl)cc(Cl)c1O,1.247,-0.2058,26.4,7.527
CN(C)C(=O)NCc1nnn2c1CN(CC1CCOCC1)CCC2.O=C(O)C(F)(F)F,-,-,10.17,-
Cc1cccc(N2CCOCC3(C2)CN(c2cccnc2)C(=O)CO3)n1 (configuration not stated),-14.39,3.03,13.53,0
Cn1cnnc1S(=O)(=O)Cc1cc(Cl)c2c(c1)OCCO2,3.647,1.613,2.693,7.895
CCCN1CCCN(c2ncccc2C(=O)N2CCCCC2)CC1,-9.902,0.3636,2.94,-1.613
O=C(O)C(F)(F)F.O=C(O)C(F)(F)F.O=c1cc(Cn2cncn2)nc2n1CCCN(CCN1CCCC1)C2,-,-,14.85,-
CCCC1c2cccn2CCN1C(=O)c1cc(CC)no1 (configuration not stated),-7.007,-5.583,1.683 & -4.274,13.04
O=C(O)C(F)(F)F.[H][C@@]12CCCO[C@]1([H])[C@@H](OCC1CCOCC1)CN2Cc1ccccc1F,-,-,-19.24,-
Cc1nc(N2Cc3cnn(Cc4ccc(F)cc4)c3C2)no1,-3.324,2.314,-21.5,15.62
CN(Cc1nc(C2CC2)no1)C(=O)CN1CC(c2ccccc2)CC1=O (configuration not stated),-3.519,-12.85,-9.577,28.36
Cn1nnc2c1C(COCC1CC1)CN(C(=O)Cc1ccccn1)C2 (configuration not stated),-10.14,10.41,-1.989,24.32
CCN(CC)C(=O)Cn1nc(C(C)C)c2cnn(C(C)(C)C)c2c1=O,6.26,6.866,1.476,8.264
O=C(Nc1nncs1)C1CSCN1C(=O)C1CCCC1 (configuration not stated),-2.748,-1.844,6.687,12.86
COCC(=O)N1CCc2nc(-c3cnccn3)nc(O)c2C1,0.7633,3.676,12.91,11.46
OC1(CNCCc2nc3c(s2)CCCC3)CNCCOC1 (configuration not stated),-10.5,-15.49,-8.878,20.21
CCNc1nc(C)c(C(=O)N(C)Cc2nc(CC)no2)s1,6.101,1.408,-28.86,7.407
CC(=O)N(CCc1nc(-c2cc(C(N)=O)oc2C)cs1)C(C)C,-12.31,-0.2451,29.25,4.444
Cc1cnc(CN(Cc2ccccc2)CC(O)c2cccs2)cn1 (configuration not stated),-18.96,12.78,16.41,5.66
COc1ccc(C(=O)N2CCCC(C)C2)cc1F (configuration not stated),21.01,1.542,-2.297,30.95
COCCN1C(=O)[C@H]2CC[C@@H]1CN(C(=O)CCc1n[nH]c(C)c1C)C2,5.308,1.781,-,10.26
COc1ccccc1OCc1cc(C(=O)N2CCS(=O)(=O)CC2)n[nH]1,8.431,3.748,30.16,6.061
Cc1ccccc1N1CCN(c2nc(N(C)C)nc3c2CCNC3)CC1,5.76,-30.53,40,58.57
CS(=O)(=O)c1snnc1C1CCN(Cc2cccnc2)CC1,8.303,0.9685,41.9 & 0.1393,20.62
COc1ccc(CN2CCn3cc(CNC(=O)C4CCC4)nc3C2)cc1,14.39,-21.17,-,2.857
CC(=O)N(Cc1ncc(C(C)C)o1)C1CCN(Cc2ncc[nH]2)C1 (configuration not stated),11.95,4.047,27.15,27.69
COc1ccc(CNC(C)c2cn[nH]c2C)cc1 (configuration not stated),-12.52,-3.931,-5.889,-6.452
[H][C@]12CCN(C(=O)c3ccoc3)[C@@]1([H])CC[C@H](COCC1CCOCC1)O2,-,-,5.212,-
[H][C@@]12CS(=O)(=O)C[C@]1([H])N(Cc1cc(Cl)cc(Cl)c1)CCN2CCO,-,-,3.393,-
O=C(O)C(F)(F)F.[H][C@@]12CCCO[C@]1([H])[C@H](OCc1cccnc1)CN2C(=O)c1cnccn1,-,-,15.86,-
Cc1cc(C2CCN(S(=O)(=O)N(C)C)CC2)ccn1,-8.053,-12.88,4.435,11.35
CCc1cccc(OCCN(C)C(=O)c2ccccc2NCC(=O)O)c1,-9.281,-20.87,-2.588,31.33
CC(C)CN(CC(O)c1ccc(F)cc1)C(=O)c1cc[nH]n1 (configuration not stated),-15.8,0.9709,16.92,-21.69
O=C(O)C(F)(F)F.[H][C@@]12CCN(c3nncs3)[C@@]1([H])CCN2C(=O)NC1CC1,-,-,25.73,-
N#Cc1ccc(C(=O)NCCCNc2ccc(C(F)(F)F)cn2)cc1,17.75,5.053,19.24,-10.4
CC(C)c1nc(CSc2nnc(C3CC3)n2CC(N)=O)no1,5.341,2.187,2.776,17.33
Cn1c(NC(=O)CCS(=O)(=O)C2CCCC2)nc2cc(Cl)ccc21,-2.134,7.851,49.86,5.333
COc1ccc(OCc2cc(C(=O)N3CCC(O)CC3)n[nH]2)c(Cl)c1,-11.43,2.316,11.29,3.774
Cc1ccc(OCC2CCCN(C(=O)Cn3ccccc3=O)C2)cc1 (configuration not stated),11.71,-2.99,-25.82,13.11
CC(C)(NS(C)(=O)=O)c1nc(-c2cccc(Cl)c2)no1,-8.427,-3.373,4.847,5.495
O=C1COc2ccc(S(=O)(=O)NC3CC3)c3c2N1CCC3,-14.33,0.8783,29.29,11.86
CN(C)C(=O)N1C[C@@H]2CC[C@H](C1)N(Cc1ccc3nsnc3c1)C2,-11.26,-1.266,-,24.04
Cc1ccc(CN2CCn3c(CNC(=O)c4cccn4C)cnc3C2)s1.O=C(O)C(F)(F)F,-,-,8.925,-
CN(C)Cc1ccc(NC(=O)c2nccn3ccnc23)cc1,-2.289,-7.57,18.34,5.479

The last 4 entries again:

O=C1COc2ccc(S(=O)(=O)NC3CC3)c3c2N1CCC3 read ClpP1P2: -14.33%; CoaBC: 0.8783%; Leishmania in macrophages: 29.29%; LiHisRS: 11.86%.
CN(C)C(=O)N1C[C@@H]2CC[C@H](C1)N(Cc1ccc3nsnc3c1)C2 read ClpP1P2: -11.26%; CoaBC: -1.266%; LiHisRS: 24.04%.
Cc1ccc(CN2CCn3c(CNC(=O)c4cccn4C)cnc3C2)s1.O=C(O)C(F)(F)F read Leishmania in macrophages: 8.925%.
CN(C)Cc1ccc(NC(=O)c2nccn3ccnc23)cc1 read ClpP1P2: -2.289%; CoaBC: -7.57%; Leishmania in macrophages: 18.34%; LiHisRS: 5.479%.

Source: ChEMBL document CHEMBL3988442, “University of Dundee, Small-Polar-MMV Screening Library” (2021).